Experimental data: US20090181409A1, “Optical biosensor method for cell-cell interaction” (priority 2008, published 2009)
At least one structure is not confirmed: it was looked up by name or label, or the drawing left a doubt.

Tested on: D1 cells
Assay: NK92 cell-induced optical signal of D1 cells (Epic RWG biosensor), modulation by pharmacological agents
Assay type: cell-based, mouse
Details: D1 cells pretreated with agent for 1 hour before NK cells; killer:target ratio 1; 28° C.
Protocol: The impact of six pharmacological agents was examined on the NK92 cell-induced optical signal of D1 cells. […] Brefeldin A (BFA), and Camptothecin are defined above. Kp7-6 is an exocyclic cystine-knot peptide that specifically antagonizes Fas/FasL-mediated cellular apoptotic signals, for example, it can reduce 58% of FasL-induced apoptosis in Jurkat cells at 1 mg/mL. Latrunculin inhibits actin polymerization in vitro and disrupts microfilament organization as well as microfilament-mediated processes. […] Wortmannin is a potent, selective, cell-permeable and irreversible inhibitor of phosphatidylinositol 3-kinase.
Cell culture—Natural killer cells-NK92MI and the multipotent mouse bone marrow D1 cell line were from American Type Culture Collection (Manassas, Va.). NK92MI cells were grown in RPMI medium plus 12.5% horse serum and 12.5 fetal bovine serum (FBS) and antibiotics. D1 cells were grown in Dulbecco's Modified Eagle's Medium supplemented with 10% fetal bovine serum (FBS) and antibiotics. Approximately 1×10^4 to 2×10^4 target cells of D1 in 50 μL medium were placed in each well of Epic® 384-well microplate. […]
Epic® system and DMR assays—Epic® beta system was used during this study. […] Cell number of NK92MI was counted with Beckman Coulter Particle Counter. […]

Compound: COC[C@H]1OC(=O)c2coc3c2[C@@]1(C)C1=C(C3=O)[C@@H]2CCC(=O)[C@@]2(C)C[C@H]1OC(C)=O [wortmannin, Wortmannin]
- effect on NK92-induced signals of D1 cells: dose dependently increases
